End groups of sequences in plain letters are not given here.
Assay: peptide made by a vendor (Fmoc solid-phase peptide synthesis)
Details: whole synthesis, 210 nm

## RRRQRRKKRGSGVRRRRLSNVSL
  final HPLC purity: 98.3%

— patent publication US20240034752A1 (priority 2021, published 2024)
